For 167 variants, yeast fitness results are on record in the RNAGym collection of RNA variant scans (doi:10.1126/science.aae0568).

Variants at the background level are over-represented here.

B1: tRNA (parent)
chain: GUUCCGUUGGCGUAAUGGUAACGCGUCUCCCUCCUAAGGAGAAGACUGCGGGUUCGAGUCCCGUACGGAACG

Variants of B1 are the subject of this data set. The data set is described as follows: yeast fitness relative to wild type (ratio to wild type); higher = fitter; tRNA-Arg(CCU), competitive growth, 37 C, YPD. A digest of the protocol: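 Amplicons of the tRNA-Arg(CCU) gene were sequenced, 100-nucleotide paired-end, from the start population and from each end population of a pooled yeast competition. The competition, in six parallel replicates, lasted 24 hours in YPD at 37°C. Fitness relative to wild type was calculated from changes in genotype frequencies. Genotypes had to have ≥ 100 starting reads, and estimates < 0.5 were set to 0.5.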
Regarding G10A C33U G50A, the yeast fitness was no more than 0.5. U28G C60G: the yeast fitness amounted to 0.603. The value for C5U G12A A40U A45G U53C A57G C66U was no more than 0.5; that for U7C C31U G50A G68C was no more than 0.5.

As for C5U G18C G52C, the yeast fitness was no more than 0.5. For A14U A20C C31G A69U the value was no more than 0.5; for G12A A21C C31U, no more than 0.5; for U3A A20C U32A C62U G63A A69C, no more than 0.5. For A15C G48C C66U G67C A70G the value was no more than 0.5; for U28C A43G A57C A65U, no more than 0.5; for G44C G52A, 0.833. C11A C49U G51A A65U: the yeast fitness was no more than 0.5. In the case of U16G G18C A21U A45U C49U U64A, the yeast fitness was no more than 0.5. The value for U7A G9C G17C G48A C62U was no more than 0.5; that for U8A G10A G39A was 0.626; that for C24G A45C C60A G68U was no more than 0.5. For A15U C22G C27G A42C G63C the value was no more than 0.5. In the case of G12A G50C G67A G68A, the yeast fitness is no more than 0.5. The value for G6C C24G U26C was no more than 0.5; that for U7C U47C C60G was no more than 0.5; that for U7G A37G C55G was no more than 0.5. Consider C22U U28G U32A U54A, for which the yeast fitness was no more than 0.5. As to A15U U32C C33G C62G, the yeast fitness was no more than 0.5. For the variant U3G U8G C29G A40U C61U A69C, the yeast fitness is no more than 0.5. For C24A A36C A37C C46U the value was no more than 0.5; for A45C C60G G67A, no more than 0.5. For A20C A42G the value was 0.842; for C11U A15U, 0.757. For C22G U47C A70U the value was 0.722; for U3G U16G A21G C29A U32C C33U C34A, 0.788; for U2C G41C G68A, no more than 0.5. On to A45U U59G, for which the yeast fitness was 0.66. In the case of U3A A36U A57G G63C, the yeast fitness came to 0.681.

On to U2A U19A A20C U26A A57C C66A, for which the yeast fitness was no more than 0.5. For U16C U32A A45C G48A G68A the value was no more than 0.5. Regarding C11G U32A C66U, the yeast fitness is no more than 0.5. For G23C C27G C61U the value was no more than 0.5. For C11G A14U C24A G52C A57C the value was no more than 0.5. For C4U A36U A40C A65C the value was no more than 0.5; for A40U C60A, 0.604. G17C A42G A65U: the yeast fitness was no more than 0.5. The value for G18A U26C was 0.648. With U8A C31U A37G, the yeast fitness is no more than 0.5. For U2A U28C G67U the value was no more than 0.5; for C27A G39C A57U A70U, no more than 0.5. With U2A U7A G10A G41C A42U C46A C61G, the yeast fitness is no more than 0.5.

As for C4G U8A G12A C31A, the yeast fitness was no more than 0.5. The value for U26C U54G C66A was no more than 0.5; that for C34A G39C G52A G58A was no more than 0.5. In the case of C34U G41A U47A G58C, the yeast fitness is no more than 0.5. The value for C5U A37G A43C U59C was no more than 0.5; that for C11G U16C A21U C30G G50C was no more than 0.5. For G6A C27U C29A G58C C66U the value was no more than 0.5; for A21U G51A G52A, no more than 0.5.

On to G23A A57G G58A C62U A70U, for which the yeast fitness is no more than 0.5. The value for C4U A15C A37G G50C C60G was no more than 0.5; that for C4U C11G G18A G23C U47G G50A G67C was no more than 0.5.

C5U A14G C30G C31G A65U C66G: the yeast fitness was no more than 0.5.

As for C5G U53G G67A, the yeast fitness is no more than 0.5. A20G U26C: the yeast fitness came out at 0.984. The value for C34A U47C G51A G67A was no more than 0.5; that for A15G C24A U64A was no more than 0.5. Regarding A14U C29G G41A C49G A57G, the yeast fitness is no more than 0.5. As to C11A G48A C55U, the yeast fitness is no more than 0.5. For the variant C27U G38C A69U, the yeast fitness was no more than 0.5.

In the case of C31G G44A G51C U54C A69C, the yeast fitness was no more than 0.5. For C5U G12A C30A C62A the value was no more than 0.5; for C11U C30A G39A U47A G63C, no more than 0.5. The value for A20U G25A U28C G44A C46U G48A C60G C62A C66G was no more than 0.5; that for C11A U28C C33U G41A G52C was no more than 0.5. The value for G18C C22G A65G A70U was no more than 0.5; that for U19A A57C U64A was no more than 0.5.

With U2A C30A A42C, the yeast fitness is no more than 0.5. As to U3A C5U C31A, the yeast fitness was no more than 0.5. A36C A40U G48A: the yeast fitness was no more than 0.5. The value for U16C G18C A37G U54G U64G was no more than 0.5; that for G9A A20C G38C A70C was no more than 0.5. The value for G18C A45C U47C was no more than 0.5.

Regarding U8C A14U G48C A70C, the yeast fitness is no more than 0.5. The value for U2G C22G G41C was no more than 0.5; that for U8C C33U G58C was no more than 0.5; that for U3G C4G G6C C29A A36C was no more than 0.5. The value for C5G A21U G38A A45C was no more than 0.5. For C30G A45G the value was 0.698. Turning to C11G C22A A36C C61G A69C, the yeast fitness was no more than 0.5.

Take A57C C61G: the yeast fitness is no more than 0.5. Take C4G C29G A37U: the yeast fitness is no more than 0.5. The value for A15C U16C A70U was no more than 0.5; that for A14G A45U C60A was no more than 0.5.

U8A C22A C33A A36U U54A: the yeast fitness is no more than 0.5. Turning to C27U C33G A43G A45C, the yeast fitness came out at 0.634. Consider C24U C27U A57C, for which the yeast fitness is no more than 0.5. As for C33A C46U U59C G68C, the yeast fitness was no more than 0.5. As for G12A C27A C31G A42C C61G, the yeast fitness is no more than 0.5. Regarding A15G C22A U26A A40U U54G A65U G67A, the yeast fitness was no more than 0.5.

Take G23A C33G U35G C60U C62G: the yeast fitness was no more than 0.5. On to U3G G17A C30U A69U, for which the yeast fitness is no more than 0.5.

In the case of U7G G9A U28G C46G C49U A69C, the yeast fitness is no more than 0.5.

As for A14C C30G, the yeast fitness came out at 0.508. Consider U32A A36U A70G, for which the yeast fitness was no more than 0.5. The value for C31A C33U G41C was no more than 0.5; that for C22A C24G A36G G39C G51A C55U C66U was no more than 0.5. The value for A36C C46G G67C was no more than 0.5; that for G41A G48C G52A was no more than 0.5. The value for A14G A15C C30A A69C was no more than 0.5. As to A40U U53A C61U, the yeast fitness was no more than 0.5. As for C5A A20C A37G C49G U53A C60U A69C, the yeast fitness is no more than 0.5.

As to G9C C22U G39A C66U, the yeast fitness was no more than 0.5.

With C61G C62G A70C, the yeast fitness stood at 0.512.

As to G6A G18C C49U C61G, the yeast fitness was no more than 0.5. Regarding C4A C5G A36U G63A, the yeast fitness was no more than 0.5. For A20C G23C C34A, the yeast fitness is no more than 0.5. Regarding A15G A42C C49A, the yeast fitness stood at 0.527. As to A14C C62G C66U, the yeast fitness was no more than 0.5. In the case of C11A G23C U32G C34A G52A, the yeast fitness is no more than 0.5. For A21G U28A A70U, the yeast fitness was no more than 0.5. The value for A20G U28C U32C G68C was no more than 0.5. For C31U C34A C49A G63U G67A the value was no more than 0.5; for U8C G51A C66A, no more than 0.5; for U2G G18C C30G C34A A37C A65U, no more than 0.5.

As to C4U G25A A36C A70G, the yeast fitness is no more than 0.5. For U2G U35G A45G C49G U59C C60U A69C the value was 0.618. The value for C27A A45U C49U C60G A65U was no more than 0.5; that for C24A U26A C31A C55A U64C was no more than 0.5; that for A14G C22G C30G was no more than 0.5. The value for G12A U13C C22A U26C A69C was no more than 0.5; that for C24G G52C C60G was no more than 0.5; that for C66G was 0.902.

C5U A14C A21C A70G: the yeast fitness was no more than 0.5. For A21G A36G A40C A42C, the yeast fitness is no more than 0.5. Take U16A C24U C34A A65G G67A: the yeast fitness was no more than 0.5. G25C C33A G68A: the yeast fitness is no more than 0.5. With C22U C34U G44C, the yeast fitness was no more than 0.5. For A21C A57G C66U, the yeast fitness was no more than 0.5. The value for C11U C24U C34U C46A was no more than 0.5; that for C5G C30A C34G was no more than 0.5. With U7A A20C A21G G23A G56A, the yeast fitness was no more than 0.5. The value for C5A C22U A70G was no more than 0.5; that for G6A C22U C55G A70C was no more than 0.5; that for C4G C24U G48A U64A was no more than 0.5.

Consider C34U C66G A70U, for which the yeast fitness was no more than 0.5. As for A20G A21U C27U A40G A43G C46U C49U C61G, the yeast fitness was no more than 0.5.

Take C5U C11G C34U A42C C61A A70U: the yeast fitness was no more than 0.5. For G6U the value was 0.918. For G6A U59A C62G the value was no more than 0.5; for C5U A21C C30G U35A G38C, no more than 0.5; for U8G A37U, no more than 0.5. For C11A A42U G50A the value was no more than 0.5; for C34G U35G G39A A65G, no more than 0.5. For the variant G6C A45C, the yeast fitness was found to be 0.614.

As to A15C A36U A37G A65C, the yeast fitness is no more than 0.5. The value for C33A A57G C60U was no more than 0.5. The value for C33U C34U G38C was no more than 0.5; that for U13C A42U C55U was no more than 0.5. As to C22U C33A U53C, the yeast fitness is no more than 0.5. For G25C C46A G56C, the yeast fitness is no more than 0.5. The value for C11U A36U A43C A57G was 1.1; that for G23A A40G A45C was no more than 0.5; that for U8A G25A U26A A42C was no more than 0.5. For the variant A15G A36C G67C, the yeast fitness is no more than 0.5. For G9A U16C A20C A40G G44U C55U the value was no more than 0.5. Turning to G6A C22U G44A C46A G52A C66U, the yeast fitness is no more than 0.5. For U3A C11G C30G A42U A43G G52C C60G the value was no more than 0.5; for U2A C5A C60U, no more than 0.5. The value for C5G C11U C31U G52A U54A A70C was no more than 0.5; that for C27U C55A A69U was 0.549. The value for A20C C22U C61G was no more than 0.5.
